Results are given in words; binding and its absence hold for the method and conditions named. Binding seen in cells or lysates may run through a third protein. A result given as binding can be weak or reduced; the word gives no strength. For part of these data: Sequences can lack the tags named with a protein.
Assays:
[1] = target: USP7 lacking the Ubl3 domain, FLAG-tagged (UniProt Q93009); test: co-IP; HEK293T cells co-transfected; whole cell lysates in RIPA buffer; FLAG-tagged USP7 immunoprecipitated with anti-FLAG overnight at 4 °C, partner detected by Western blot (Fig. 2B-F, Fig. 3A)
[2] = target: USP7 lacking the Ubl4 domain, FLAG-tagged (UniProt Q93009); test: as above
[3] = target: USP7 lacking the Ubl1 domain, FLAG-tagged (UniProt Q93009); test: as above
[4] = target: USP7 lacking the Ubl5 domain, FLAG-tagged (UniProt Q93009); test: as above
DAXX-FLAG = DAXX-FLAG (UniProt Q9UER7); test: co-IP; HEK293T cells co-transfected; whole cell lysates in RIPA buffer; the partner of USP7 immunoprecipitated (anti-HA, anti-DAXX, anti-c-Rel, anti-RelB or anti-p65) overnight at 4 °C, USP7 detected by Western blot (Fig. 3B-E, Fig. 6C)
RelB-FLAG = target: T1, RelB-FLAG (UniProt Q01201); test: as above
T1 sequence: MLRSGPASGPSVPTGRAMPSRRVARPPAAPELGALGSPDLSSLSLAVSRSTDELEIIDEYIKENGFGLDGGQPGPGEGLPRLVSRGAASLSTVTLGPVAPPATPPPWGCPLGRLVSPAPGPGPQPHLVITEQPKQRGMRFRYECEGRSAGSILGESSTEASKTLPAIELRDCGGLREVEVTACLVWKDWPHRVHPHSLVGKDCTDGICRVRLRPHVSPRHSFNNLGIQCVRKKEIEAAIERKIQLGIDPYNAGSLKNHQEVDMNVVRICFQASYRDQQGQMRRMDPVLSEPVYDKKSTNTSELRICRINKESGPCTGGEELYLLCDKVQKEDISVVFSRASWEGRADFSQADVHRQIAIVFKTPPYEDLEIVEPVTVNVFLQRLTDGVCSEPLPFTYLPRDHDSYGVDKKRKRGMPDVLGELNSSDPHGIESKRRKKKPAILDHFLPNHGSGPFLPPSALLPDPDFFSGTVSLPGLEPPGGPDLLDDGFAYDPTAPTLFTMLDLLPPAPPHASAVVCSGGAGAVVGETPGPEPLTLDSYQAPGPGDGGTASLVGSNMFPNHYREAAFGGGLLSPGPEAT

Protein sequences, listed by entry. Tags and fused reporters are not part of them.
UniProt Q9UER7: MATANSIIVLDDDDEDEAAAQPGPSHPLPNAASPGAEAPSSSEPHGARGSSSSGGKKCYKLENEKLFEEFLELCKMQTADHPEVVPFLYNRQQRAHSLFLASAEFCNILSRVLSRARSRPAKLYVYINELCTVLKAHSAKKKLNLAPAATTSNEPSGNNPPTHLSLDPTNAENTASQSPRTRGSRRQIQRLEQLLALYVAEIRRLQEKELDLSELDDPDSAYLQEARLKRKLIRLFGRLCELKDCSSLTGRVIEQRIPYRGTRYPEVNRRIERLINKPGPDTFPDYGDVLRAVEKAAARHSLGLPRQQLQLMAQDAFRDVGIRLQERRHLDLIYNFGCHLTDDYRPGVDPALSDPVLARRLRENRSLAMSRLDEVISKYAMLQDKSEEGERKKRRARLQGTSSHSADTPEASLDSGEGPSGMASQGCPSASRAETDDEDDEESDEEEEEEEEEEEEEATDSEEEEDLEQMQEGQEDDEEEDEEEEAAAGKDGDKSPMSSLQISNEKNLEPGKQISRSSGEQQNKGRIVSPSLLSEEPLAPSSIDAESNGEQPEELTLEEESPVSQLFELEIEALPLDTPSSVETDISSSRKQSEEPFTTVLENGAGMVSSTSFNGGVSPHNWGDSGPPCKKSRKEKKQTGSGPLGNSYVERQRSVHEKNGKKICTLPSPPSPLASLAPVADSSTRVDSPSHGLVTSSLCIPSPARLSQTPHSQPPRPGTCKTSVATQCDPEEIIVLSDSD
UniProt Q04206: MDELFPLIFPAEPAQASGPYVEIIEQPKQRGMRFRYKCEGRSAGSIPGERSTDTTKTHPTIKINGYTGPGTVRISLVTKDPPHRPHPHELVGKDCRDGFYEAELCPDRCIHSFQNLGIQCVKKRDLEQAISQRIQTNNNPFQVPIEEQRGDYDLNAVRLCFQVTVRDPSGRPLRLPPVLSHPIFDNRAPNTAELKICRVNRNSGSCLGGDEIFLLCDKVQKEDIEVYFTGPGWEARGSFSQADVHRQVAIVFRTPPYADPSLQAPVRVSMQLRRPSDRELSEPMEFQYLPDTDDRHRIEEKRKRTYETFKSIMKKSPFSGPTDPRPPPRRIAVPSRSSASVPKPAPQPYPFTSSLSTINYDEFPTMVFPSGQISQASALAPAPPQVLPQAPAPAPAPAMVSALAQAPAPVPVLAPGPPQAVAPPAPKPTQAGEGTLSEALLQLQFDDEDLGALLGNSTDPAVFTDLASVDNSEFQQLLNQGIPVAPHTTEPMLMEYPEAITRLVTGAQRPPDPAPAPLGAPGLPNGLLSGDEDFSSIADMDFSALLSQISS

Measured: binding

NF-kB p65 (RelA), expressed in HEK293T cells (from UniProt Q04206 1-551)
binds: [1] | [2] | [3] | [4]

USP7 lacking the Ubl2 domain (USP7ΔUbl2), FLAG-tagged (from UniProt Q93009) (enzyme)
binds: DAXX-FLAG | RelB-FLAG

Reference: paper PMC7450122
